Test results taken from the supplement of paper PMC12819154, “High-throughput peptide-centric local stability assay extends protein–ligand identification to membrane proteins, tissues and bacteria” (Nature Structural & Molecular Biology, 2025).
Some of the results follow. Most entries show no effect beyond the scatter of the controls.

Protein sequences, listed by entry. Tags and fused reporters are not part of them. Lines headed by an entry give the natural chain unless they say otherwise; changes in a name come on top.
UniProt Q5EBG6: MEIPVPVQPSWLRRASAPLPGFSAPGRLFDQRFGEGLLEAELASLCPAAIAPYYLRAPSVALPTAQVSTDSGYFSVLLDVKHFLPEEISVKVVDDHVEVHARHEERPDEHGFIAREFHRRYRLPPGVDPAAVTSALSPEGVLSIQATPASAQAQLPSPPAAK
UniProt Q61160: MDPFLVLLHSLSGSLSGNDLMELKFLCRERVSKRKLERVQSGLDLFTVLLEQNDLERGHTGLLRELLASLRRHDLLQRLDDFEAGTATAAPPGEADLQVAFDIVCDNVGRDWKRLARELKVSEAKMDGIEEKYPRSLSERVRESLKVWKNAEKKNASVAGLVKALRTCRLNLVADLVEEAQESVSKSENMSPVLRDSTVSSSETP
UniProt Q5SV77, whole entry: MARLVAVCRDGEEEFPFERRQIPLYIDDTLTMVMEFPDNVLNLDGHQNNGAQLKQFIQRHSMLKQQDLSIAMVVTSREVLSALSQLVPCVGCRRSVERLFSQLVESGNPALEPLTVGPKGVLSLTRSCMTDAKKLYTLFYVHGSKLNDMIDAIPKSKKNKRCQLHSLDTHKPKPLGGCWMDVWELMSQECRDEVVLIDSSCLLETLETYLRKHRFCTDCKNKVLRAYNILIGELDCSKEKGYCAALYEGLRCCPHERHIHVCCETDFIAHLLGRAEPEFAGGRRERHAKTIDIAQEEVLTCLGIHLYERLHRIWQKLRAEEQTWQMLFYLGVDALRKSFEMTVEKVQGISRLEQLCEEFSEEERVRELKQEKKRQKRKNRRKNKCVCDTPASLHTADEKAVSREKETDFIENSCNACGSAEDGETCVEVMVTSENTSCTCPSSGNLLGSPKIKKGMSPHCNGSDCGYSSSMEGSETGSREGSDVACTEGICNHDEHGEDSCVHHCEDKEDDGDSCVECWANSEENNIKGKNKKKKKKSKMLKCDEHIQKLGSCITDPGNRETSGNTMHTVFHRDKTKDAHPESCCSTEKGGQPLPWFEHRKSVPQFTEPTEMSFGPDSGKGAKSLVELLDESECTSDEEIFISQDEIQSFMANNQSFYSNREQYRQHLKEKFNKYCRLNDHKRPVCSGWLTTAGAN
UniProt Q5I1X5: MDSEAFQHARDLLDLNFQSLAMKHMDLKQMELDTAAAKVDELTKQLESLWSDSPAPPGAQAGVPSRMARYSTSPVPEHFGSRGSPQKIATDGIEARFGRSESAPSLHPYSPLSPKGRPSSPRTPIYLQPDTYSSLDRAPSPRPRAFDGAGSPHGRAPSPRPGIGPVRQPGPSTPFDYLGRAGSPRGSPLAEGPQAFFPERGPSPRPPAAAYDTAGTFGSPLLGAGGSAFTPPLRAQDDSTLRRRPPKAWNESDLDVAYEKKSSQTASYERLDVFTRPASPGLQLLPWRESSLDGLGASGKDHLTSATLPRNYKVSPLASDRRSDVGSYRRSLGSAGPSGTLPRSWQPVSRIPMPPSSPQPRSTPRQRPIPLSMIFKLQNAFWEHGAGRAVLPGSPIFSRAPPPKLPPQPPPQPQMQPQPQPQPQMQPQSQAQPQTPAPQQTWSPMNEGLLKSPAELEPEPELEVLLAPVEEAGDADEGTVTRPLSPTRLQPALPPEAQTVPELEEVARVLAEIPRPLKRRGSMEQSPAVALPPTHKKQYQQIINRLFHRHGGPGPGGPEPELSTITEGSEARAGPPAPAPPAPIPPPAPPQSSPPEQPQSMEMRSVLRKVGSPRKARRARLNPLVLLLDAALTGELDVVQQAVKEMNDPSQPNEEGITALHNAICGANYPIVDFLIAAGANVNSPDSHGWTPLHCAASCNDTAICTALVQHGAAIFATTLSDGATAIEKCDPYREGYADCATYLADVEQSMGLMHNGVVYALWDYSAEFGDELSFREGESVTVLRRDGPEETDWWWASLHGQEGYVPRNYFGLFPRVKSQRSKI
UniProt Q5SYH2: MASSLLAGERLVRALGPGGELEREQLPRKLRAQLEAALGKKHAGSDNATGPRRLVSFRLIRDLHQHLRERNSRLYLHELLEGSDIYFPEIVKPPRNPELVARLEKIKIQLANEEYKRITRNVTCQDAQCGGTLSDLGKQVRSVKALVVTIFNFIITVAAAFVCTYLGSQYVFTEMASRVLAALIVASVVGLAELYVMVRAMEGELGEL
UniProt Q61133: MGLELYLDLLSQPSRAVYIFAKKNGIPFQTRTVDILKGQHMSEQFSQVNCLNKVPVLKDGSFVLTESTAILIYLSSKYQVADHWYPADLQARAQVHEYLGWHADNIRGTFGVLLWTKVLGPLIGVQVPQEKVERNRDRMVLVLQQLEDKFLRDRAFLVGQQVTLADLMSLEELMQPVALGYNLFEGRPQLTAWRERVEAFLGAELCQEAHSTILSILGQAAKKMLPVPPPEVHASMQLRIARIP
UniProt Q60829: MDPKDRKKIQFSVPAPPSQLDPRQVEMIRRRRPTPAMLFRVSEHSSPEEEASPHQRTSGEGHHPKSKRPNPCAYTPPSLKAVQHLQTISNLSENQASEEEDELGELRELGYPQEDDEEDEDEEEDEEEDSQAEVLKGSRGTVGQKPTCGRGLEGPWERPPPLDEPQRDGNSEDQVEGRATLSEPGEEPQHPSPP
UniProt Q5SUA5: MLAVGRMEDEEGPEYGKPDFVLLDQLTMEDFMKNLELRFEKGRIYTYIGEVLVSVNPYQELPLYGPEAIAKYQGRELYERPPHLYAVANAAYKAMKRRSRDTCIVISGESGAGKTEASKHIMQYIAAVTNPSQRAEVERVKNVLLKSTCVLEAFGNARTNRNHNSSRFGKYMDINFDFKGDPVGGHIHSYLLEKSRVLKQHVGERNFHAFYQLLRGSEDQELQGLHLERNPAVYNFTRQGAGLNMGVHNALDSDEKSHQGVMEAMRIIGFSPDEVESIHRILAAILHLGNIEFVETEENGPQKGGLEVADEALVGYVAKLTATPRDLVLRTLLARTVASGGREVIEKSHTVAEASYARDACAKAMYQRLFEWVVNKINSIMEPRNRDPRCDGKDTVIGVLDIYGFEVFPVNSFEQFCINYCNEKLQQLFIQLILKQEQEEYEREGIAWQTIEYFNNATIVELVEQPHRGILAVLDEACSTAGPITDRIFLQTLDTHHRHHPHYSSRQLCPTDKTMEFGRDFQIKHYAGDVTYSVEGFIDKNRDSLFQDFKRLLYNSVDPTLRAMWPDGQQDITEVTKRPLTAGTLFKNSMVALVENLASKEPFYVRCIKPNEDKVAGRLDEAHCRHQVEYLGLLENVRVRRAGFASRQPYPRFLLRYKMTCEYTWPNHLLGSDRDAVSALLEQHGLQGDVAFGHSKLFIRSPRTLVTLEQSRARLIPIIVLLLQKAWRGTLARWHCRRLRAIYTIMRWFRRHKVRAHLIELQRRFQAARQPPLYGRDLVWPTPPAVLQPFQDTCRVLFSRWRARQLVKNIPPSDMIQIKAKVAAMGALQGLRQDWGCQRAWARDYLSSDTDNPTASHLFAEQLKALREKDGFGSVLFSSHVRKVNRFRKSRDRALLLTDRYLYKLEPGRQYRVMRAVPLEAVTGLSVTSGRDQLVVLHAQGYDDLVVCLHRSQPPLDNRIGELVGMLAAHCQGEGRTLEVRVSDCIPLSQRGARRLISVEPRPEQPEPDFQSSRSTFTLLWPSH
UniProt Q61017: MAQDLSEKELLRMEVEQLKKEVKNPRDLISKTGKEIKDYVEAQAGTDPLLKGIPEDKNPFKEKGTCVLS
UniProt Q61249: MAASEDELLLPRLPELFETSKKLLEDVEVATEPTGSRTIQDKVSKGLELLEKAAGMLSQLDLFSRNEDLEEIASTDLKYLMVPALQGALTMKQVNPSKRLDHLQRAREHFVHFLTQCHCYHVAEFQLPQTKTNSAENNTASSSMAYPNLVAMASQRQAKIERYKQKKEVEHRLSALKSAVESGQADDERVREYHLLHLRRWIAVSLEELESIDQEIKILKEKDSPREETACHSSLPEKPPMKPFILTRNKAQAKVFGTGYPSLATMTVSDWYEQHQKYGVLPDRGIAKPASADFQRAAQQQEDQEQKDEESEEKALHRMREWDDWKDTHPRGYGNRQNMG
UniProt Q60649: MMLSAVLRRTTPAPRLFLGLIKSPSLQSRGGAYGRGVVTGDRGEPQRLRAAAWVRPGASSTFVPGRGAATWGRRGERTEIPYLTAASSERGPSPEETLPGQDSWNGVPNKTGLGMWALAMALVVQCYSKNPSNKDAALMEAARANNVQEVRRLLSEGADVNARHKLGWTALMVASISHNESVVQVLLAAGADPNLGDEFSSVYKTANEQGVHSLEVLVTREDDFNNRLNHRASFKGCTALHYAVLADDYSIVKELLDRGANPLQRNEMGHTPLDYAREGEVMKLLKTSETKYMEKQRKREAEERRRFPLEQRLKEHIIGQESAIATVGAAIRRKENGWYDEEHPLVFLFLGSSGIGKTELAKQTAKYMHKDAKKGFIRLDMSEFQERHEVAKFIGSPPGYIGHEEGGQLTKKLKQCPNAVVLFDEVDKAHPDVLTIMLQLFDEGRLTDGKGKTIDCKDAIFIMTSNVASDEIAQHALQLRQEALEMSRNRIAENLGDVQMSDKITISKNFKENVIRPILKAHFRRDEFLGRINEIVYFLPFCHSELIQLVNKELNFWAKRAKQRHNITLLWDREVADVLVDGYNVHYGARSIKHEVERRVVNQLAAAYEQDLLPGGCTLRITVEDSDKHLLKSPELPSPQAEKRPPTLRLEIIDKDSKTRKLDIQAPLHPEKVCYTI
UniProt Q5IR70: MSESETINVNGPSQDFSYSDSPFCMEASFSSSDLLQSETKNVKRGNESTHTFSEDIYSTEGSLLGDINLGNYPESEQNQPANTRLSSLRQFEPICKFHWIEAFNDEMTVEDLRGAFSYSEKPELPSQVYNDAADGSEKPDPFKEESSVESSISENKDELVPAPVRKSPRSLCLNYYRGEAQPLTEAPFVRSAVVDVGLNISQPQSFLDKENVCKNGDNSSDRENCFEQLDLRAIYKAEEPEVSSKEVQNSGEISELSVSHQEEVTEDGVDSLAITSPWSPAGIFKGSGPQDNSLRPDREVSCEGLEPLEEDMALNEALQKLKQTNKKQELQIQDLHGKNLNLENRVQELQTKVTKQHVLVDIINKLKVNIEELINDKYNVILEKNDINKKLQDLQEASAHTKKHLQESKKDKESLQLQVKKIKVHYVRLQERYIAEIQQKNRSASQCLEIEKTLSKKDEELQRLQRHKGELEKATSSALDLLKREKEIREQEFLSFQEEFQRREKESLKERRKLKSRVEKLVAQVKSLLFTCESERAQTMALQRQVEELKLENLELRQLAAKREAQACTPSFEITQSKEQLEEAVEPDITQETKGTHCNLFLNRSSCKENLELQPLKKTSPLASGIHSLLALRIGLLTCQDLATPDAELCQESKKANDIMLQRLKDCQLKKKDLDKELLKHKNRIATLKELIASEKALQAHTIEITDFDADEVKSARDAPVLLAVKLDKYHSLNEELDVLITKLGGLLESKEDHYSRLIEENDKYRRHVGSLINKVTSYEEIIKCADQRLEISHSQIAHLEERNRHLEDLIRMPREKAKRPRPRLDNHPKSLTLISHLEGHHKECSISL
UniProt Q5SPL2: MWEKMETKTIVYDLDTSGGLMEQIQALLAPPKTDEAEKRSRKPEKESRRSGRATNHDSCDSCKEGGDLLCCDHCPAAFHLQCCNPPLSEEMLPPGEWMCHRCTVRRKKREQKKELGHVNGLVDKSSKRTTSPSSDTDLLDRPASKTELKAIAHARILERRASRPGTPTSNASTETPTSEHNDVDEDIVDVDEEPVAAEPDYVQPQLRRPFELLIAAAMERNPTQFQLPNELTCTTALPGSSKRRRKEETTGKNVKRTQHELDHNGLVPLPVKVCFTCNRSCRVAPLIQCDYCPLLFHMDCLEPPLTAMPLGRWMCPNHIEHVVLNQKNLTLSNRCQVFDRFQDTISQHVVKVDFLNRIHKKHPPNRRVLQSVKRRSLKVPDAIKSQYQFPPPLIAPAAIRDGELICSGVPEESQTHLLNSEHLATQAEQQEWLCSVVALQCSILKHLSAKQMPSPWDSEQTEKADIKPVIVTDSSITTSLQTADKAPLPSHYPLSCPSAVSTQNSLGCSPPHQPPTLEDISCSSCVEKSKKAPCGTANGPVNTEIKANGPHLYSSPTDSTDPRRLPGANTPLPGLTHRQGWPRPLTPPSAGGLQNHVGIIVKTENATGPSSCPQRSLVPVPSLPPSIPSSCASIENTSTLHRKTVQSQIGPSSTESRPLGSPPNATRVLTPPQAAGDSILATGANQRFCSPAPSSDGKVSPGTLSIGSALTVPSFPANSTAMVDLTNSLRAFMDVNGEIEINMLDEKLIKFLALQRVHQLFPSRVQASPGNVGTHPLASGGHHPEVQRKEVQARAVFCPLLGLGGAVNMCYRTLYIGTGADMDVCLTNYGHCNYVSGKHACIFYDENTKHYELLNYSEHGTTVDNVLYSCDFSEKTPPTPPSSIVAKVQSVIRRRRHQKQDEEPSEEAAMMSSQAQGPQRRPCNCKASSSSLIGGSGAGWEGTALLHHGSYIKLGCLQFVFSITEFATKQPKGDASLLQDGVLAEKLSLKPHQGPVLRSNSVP

compound: CN[C@@H]1C[C@H]2O[C@@](C)([C@@H]1OC)n1c3ccccc3c3c4c(c5c6ccccc6n2c5c31)C(=O)NC4 [staurosporine]; test: log2 fold change of tryptic peptide abundance, ligand vs vehicle (limited proteolysis) (log2 ratio); higher = more trypsin-susceptible (destabilized); conditions: ligand concentration: 20 uM; sample: mouse liver crude lysate; replicate design: treated separately

Target	log2 fold change
UniProt Q5EBG6 (peptide sequence: RASAPLPGFSAPGR, peptide start residue: 14)	-0.28
UniProt Q60967 (peptide sequence: RPVLLLHPLGGWTK, peptide start residue: 446)	-0.578
UniProt Q5U4C9 (peptide sequence: VTESTGAITSISK, peptide start residue: 551)	-0.567
UniProt Q60848 (peptide sequence: KMLEEAQK, peptide start residue: 31)	0.331
UniProt Q61122 (peptide sequence: DYPHSAFTLEK, peptide start residue: 465)	0.233
UniProt Q5SV80 (peptide sequence: CIQCGWR, peptide start residue: 767)	0.391
UniProt Q61160 (peptide sequence: MDGIEEKYPR, peptide start residue: 126)	0.241
UniProt Q5SV77 (peptide sequence: MLKCDEHIQK, peptide start residue: 540)	0.304
UniProt Q5I1X5 (peptide sequence: AFDGAGSPHGR, peptide start residue: 145)	-0.329
UniProt Q5SYH2 (peptide sequence: DLHQHLR, peptide start residue: 62)	-0.357
UniProt Q61133 (peptide sequence: VLGPLIGVQVPQEKVER, peptide start residue: 118)	0.139
UniProt Q5SF07 (peptide sequence: LAEEVPLK, peptide start residue: 264)	-0.334
UniProt Q61142 (peptide sequence: VSALEVLPDRVATSR, peptide start residue: 108)	-0.246
UniProt Q60829 (peptide sequence: VSEHSSPEEEASPHQR, peptide start residue: 41)	0.134
UniProt Q5SUA5 (peptide sequence: VSDCIPLSQR, peptide start residue: 982)	-0.0401
UniProt Q60991 (peptide sequence: KLLTDDDLNEDVHR, peptide start residue: 125)	-0.158

Single values from the results shown:
Value for UniProt Q5U4C9 (peptide sequence: VTESTGAITSISK, peptide start residue: 551) under log2 fold change: -0.567
Value for UniProt Q60848 (peptide sequence: KMLEEAQK, peptide start residue: 31) under log2 fold change: 0.331

(cont.)

Target	log2 fold change
UniProt Q60631 (peptide sequence: HDGAFLIR, peptide start residue: 79)	0.226
UniProt Q61017 (peptide sequence: MEVEQLKK, peptide start residue: 13)	0.0573
UniProt Q60773 (peptide sequence: TGFLDTLK, peptide start residue: 84)	0.608
UniProt Q5SSI6 (peptide sequence: ARPGSGSTPAK, peptide start residue: 23)	0.316
UniProt Q61093 (peptide sequence: QSISNSESGPR, peptide start residue: 549)	-0.494
UniProt Q61249 (peptide sequence: EYHLLHLRR, peptide start residue: 192)	0.545
UniProt Q5U4F6 (peptide sequence: GFALAVQQLPR, peptide start residue: 312)	0.755
UniProt Q5S006 (peptide sequence: LMIVGNTGSGK, peptide start residue: 1337)	0.402
UniProt Q60649 (peptide sequence: EDDFNNRLNHR, peptide start residue: 221)	-0.399
UniProt Q60936 (peptide sequence: IVSTLCKVR, peptide start residue: 260)	0.365
UniProt Q5IR70 (peptide sequence: YRRHVGSLINK, peptide start residue: 765)	-0.487
UniProt Q61147 (peptide sequence: QFTDSSFR, peptide start residue: 781)	-0.216
UniProt Q61140 (peptide sequence: EAPTDGKR, peptide start residue: 423)	-0.685
UniProt Q5SPL2 (peptide sequence: VHQLFPSR, peptide start residue: 757)	0.476
UniProt Q5RJH2 (peptide sequence: TRPLLINLSK, peptide start residue: 16)	0.113
